Results of single-concentration screens

The chains behind the UniProt entries cited, without tags or fusion partners.
UniProt P9WFT3, whole entry: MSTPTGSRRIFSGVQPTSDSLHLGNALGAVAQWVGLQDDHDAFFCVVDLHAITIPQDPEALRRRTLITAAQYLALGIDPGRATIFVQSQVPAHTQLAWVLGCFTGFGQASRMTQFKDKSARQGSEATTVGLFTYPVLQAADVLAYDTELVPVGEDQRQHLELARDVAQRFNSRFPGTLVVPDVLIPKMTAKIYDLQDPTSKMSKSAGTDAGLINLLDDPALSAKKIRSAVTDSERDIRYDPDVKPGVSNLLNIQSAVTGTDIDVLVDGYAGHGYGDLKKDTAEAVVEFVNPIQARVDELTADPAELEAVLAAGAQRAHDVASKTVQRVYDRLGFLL
UniProt P9WPC5, whole entry: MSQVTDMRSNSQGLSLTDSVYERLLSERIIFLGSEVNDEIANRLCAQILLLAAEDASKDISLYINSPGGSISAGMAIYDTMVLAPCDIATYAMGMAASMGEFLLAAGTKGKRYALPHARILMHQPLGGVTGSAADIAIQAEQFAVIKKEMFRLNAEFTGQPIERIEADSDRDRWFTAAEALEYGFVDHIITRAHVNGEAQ
UniProt P9WPC3, whole entry partner: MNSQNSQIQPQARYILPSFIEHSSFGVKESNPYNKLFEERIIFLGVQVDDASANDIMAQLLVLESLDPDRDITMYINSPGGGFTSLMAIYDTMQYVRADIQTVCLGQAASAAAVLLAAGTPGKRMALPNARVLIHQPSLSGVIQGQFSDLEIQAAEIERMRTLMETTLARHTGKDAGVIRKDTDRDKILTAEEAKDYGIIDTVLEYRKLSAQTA
UniProt P9WNZ1, whole entry: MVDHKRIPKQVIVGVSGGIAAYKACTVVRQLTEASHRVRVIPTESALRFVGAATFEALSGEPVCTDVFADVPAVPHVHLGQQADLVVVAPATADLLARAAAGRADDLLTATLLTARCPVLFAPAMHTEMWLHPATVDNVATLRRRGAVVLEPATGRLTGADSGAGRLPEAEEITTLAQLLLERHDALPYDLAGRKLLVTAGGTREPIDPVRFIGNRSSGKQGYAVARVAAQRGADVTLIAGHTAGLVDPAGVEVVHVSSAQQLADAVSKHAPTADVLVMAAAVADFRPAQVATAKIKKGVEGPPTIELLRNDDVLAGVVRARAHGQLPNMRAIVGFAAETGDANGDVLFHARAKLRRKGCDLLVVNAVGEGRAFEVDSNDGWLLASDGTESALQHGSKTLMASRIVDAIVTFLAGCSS
UniProt I6X8D2, whole entry: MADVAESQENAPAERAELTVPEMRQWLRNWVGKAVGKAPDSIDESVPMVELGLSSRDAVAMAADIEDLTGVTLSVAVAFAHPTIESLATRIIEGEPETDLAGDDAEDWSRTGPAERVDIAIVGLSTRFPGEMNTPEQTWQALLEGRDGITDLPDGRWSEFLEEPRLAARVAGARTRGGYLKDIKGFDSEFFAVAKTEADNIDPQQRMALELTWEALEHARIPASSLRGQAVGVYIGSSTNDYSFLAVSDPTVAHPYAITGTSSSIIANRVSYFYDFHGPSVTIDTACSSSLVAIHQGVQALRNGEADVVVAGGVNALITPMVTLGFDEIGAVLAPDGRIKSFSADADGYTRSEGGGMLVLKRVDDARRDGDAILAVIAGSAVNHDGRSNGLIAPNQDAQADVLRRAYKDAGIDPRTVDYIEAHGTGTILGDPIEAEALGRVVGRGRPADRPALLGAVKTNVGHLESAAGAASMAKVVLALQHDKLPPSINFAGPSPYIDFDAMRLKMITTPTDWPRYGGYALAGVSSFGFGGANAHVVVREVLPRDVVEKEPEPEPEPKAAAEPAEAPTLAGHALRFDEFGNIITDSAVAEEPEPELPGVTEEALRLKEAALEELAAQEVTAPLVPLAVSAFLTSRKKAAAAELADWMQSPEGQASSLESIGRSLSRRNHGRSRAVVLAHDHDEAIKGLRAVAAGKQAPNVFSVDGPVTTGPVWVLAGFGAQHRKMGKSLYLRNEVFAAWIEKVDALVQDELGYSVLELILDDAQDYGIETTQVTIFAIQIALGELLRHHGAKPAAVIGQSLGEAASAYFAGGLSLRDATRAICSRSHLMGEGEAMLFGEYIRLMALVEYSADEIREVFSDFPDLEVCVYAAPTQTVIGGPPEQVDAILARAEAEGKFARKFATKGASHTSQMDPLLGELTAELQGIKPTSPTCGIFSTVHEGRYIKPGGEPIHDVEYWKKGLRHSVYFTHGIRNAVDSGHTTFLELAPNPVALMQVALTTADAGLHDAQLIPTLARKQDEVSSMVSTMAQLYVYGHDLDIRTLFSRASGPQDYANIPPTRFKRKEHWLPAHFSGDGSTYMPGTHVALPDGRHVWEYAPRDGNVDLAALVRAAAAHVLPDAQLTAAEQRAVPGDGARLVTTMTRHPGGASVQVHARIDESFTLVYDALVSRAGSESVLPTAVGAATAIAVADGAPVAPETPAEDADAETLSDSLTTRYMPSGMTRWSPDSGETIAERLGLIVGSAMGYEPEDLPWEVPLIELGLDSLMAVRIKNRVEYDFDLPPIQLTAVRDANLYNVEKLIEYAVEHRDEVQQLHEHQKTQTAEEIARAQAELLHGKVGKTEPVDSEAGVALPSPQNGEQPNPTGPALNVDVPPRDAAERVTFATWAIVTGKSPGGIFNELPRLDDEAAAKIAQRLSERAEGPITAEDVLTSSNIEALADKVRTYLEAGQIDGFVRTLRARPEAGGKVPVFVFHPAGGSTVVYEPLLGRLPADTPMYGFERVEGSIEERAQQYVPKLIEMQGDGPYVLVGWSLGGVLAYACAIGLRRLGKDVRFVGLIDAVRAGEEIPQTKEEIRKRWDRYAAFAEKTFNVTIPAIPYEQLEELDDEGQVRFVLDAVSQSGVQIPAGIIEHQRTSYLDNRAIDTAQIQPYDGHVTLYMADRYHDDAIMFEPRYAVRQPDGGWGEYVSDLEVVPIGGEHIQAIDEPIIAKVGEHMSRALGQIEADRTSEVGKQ

From ChEMBL document CHEMBL3988442, “University of Dundee, Small-Polar-MMV Screening Library” (2021).

The filed quantity is “Percent Effect” (%).
How 0% and 100% were set is not recorded. Most values in the screen are low, and negative values occur.
The compounds are a random part of those screened.

A: 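Tryptophan-tRNA ligase, Mycobacterium tuberculosis (UniProt P9WFT3). Enzyme assay of tryptophanyl-tRNA synthetase; the read-out is not stated. Tested at 10 µM. Higher most likely means stronger inhibition; the record gives no direction and few retests gave an IC50. About 65,000 compounds were tested under these conditions; 0.098% (about 64) showed 50% or more at least once.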
B: 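Assay of Toxoplasma gondii numbers, read through their beta-galactosidase reporter with a colour substrate. Concentration: 10 µM. The record gives no direction; the compounds picked for IC50 retests had high values, so higher reads as fewer parasites. About 67,000 compounds were tested under these conditions; 0.38% (about 260) showed 50% or more at least once.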
C: 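ClpP1P2, Mycobacterium tuberculosis (UniProt P9WPC5 and UniProt P9WPC3). Protease assay of ClpP1P2, read by the AMC dye that it sets free. Compounds at 50 µM. Direction is inferred from only a few compounds that gave an IC50; most scored high, so higher reads as stronger inhibition. Most other retested compounds had strongly negative values. About 69,000 compounds were tested under these conditions; 0.015% (about 10) showed 50% or more at least once.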
D: 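Coenzyme A biosynthesis protein CoaBC, Mycobacterium tuberculosis (UniProt P9WNZ1). Enzyme assay of CoaBC with a phosphate dye (Biomol Green) read at 650 nm. Compounds at 30 µM. Direction is inferred from only a few compounds that gave an IC50; most scored high, so higher reads as stronger inhibition. Most strong results did not repeat in a second test. Size under these conditions: about 67,000 compounds, about 40 of them at 50% or above in at least one test.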
E: 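Enzyme assay of the thioesterase domain of polyketide synthase 13; the read-out is not stated. Target: Polyketide synthase Pks13, Mycobacterium tuberculosis (UniProt I6X8D2). Tested at 30 µM. Higher reads as stronger inhibition (inferred from which compounds were picked for retests). About 67,000 compounds were tested under these conditions; 0.46% (about 300) showed 50% or more at least once.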

* Cc1ccc(F)cc1NC(=O)CCn1cncn1 : A: -3.994%; B: 15.26%; C: 0.03889%; D: 3.423%; E: 0.7848%
* CC(C)N1CCC2(CCCN(C(=O)c3cncn3C)C2)CC1.O=C(O)C(F)(F)F : B: 3.564%
* c1cc(CNCC2CNc3ccnn3C2)cc(N2CCCCC2)n1 (configuration not stated) : A: -2.047%; B: -5.231%; C: 5.99%; D: 19.32%; E: -15.87%
* [H][C@]12CCCCN1CCC[C@H]2CNC(=O)Cn1ccc2cc(OC)ccc21 : B: 15.5%
* COc1c(C)cc(CNCc2ccnc(N3CCOCC3)c2)cc1C.Cl : B: -56.07%
* O=C(CNc1ccccc1Cl)Nc1cc(-n2cnnn2)ccc1F : A: 6.427%; B: 2.024%; C: 4.657%; D: 6.53%; E: -8.299%
* COCCN1C[C@@H]2[C@@H](OC)CCN(Cc3ccsc3)[C@@H]2C1 : A: 3.003%; C: -16.36%; D: 4.069%; E: -14.95%
* CCc1nc(C2CCCN(C(=O)c3ccc4[nH]nnc4c3)C2)no1 (configuration not stated) : A: 6.489%; B: -8.328%; C: -5.627%; D: 4.872%; E: -47.96%
* O=c1[nH]c2nc(N3CCSCC3)ncc2c(=O)n1-c1ccc(F)cc1 : A: 1.085%; B: 1.966%; C: -1.626%; D: 3.165%; E: 12.01%
* Cc1sc(-c2ccco2)nc1C(=O)N(CC(N)=O)C1CCCC1 : A: -4.312%; B: 9.238%; C: -7.524%; D: 12.73%; E: -2.877%
* COCCn1/c(=N/C(=O)C(C)C)sc2cc(Cl)ccc21 : A: -1.656%; B: 1.718%; C: -0.4496%; D: 2.886%; E: 11.41%
* N#Cc1cccc(CN2CCCC2Cn2cccn2)c1 (configuration not stated) : A: -9.032%; B: 3.35%; C: -17%; D: 1.276%; E: 1.976%
* [H][C@@]12OCCN(C(=O)C3CCOCC3)[C@@]1([H])CC[C@H]2OCC(=O)N(C)C : B: 2.014%
* CCOC(=O)c1coc(N2CCC(C(C)N3CCCC3)CC2)n1 (configuration not stated) : A: -1.72%; B: -2.308%; C: -4.126%; D: 6.117%; E: -21.12%
* CC1CCN(CC(=O)N(C)CCc2noc(C3CC3)n2)C1=O (configuration not stated) : A: -0.2681%; B: -13.58%; C: -0.8789%; D: 4.573%; E: -9.601%
* O=C(NCC1CC1)C1CN(Cc2cccs2)Cc2ccnn2C1 (configuration not stated) : A: -5.231%; B: 4.965%; C: -16.33%; D: -0.3699%; E: -6.086%
* Nc1nc(C2CCN(C(=O)c3cncs3)CC2)cs1 : A: 0.7525%; B: 0.9609%; C: -2.451%; D: 0.8333%; E: -37.93%

2 of the entries, repeated:

| Compound | A | B | C | D | E |
|---|---|---|---|---|---|
| `O=c1[nH]c2nc(N3CCSCC3)ncc2c(=O)n1-c1ccc(F)cc1` | 1.085 | 1.966 | -1.626 | 3.165 | 12.01 |
| `COCCn1/c(=N/C(=O)C(C)C)sc2cc(Cl)ccc21` | -1.656 | 1.718 | -0.4496 | 2.886 | 11.41 |